Data reported in PMC7854729 (Nature Communications, 2021).
Where “and” joins values, the source holds several entries; their conditions need not be identical. Identical values can stand only once. Like-named read-outs stand apart in the source and are kept apart here. The source gives many values for each of these; only a part stands here. Where a SMILES comes first, the peptide text is derived from it.

Target: T1, PLpro-WT (Severe acute respiratory syndrome coronavirus 2, UniProt P0DTD1)
T1 construct: PLpro is a domain of Nsp3—a large multidomain protein; made in house; host or cells: E. coli BL21(DE3)-Gold
Format: biochemical

## CC(=O)N[C@@H](CC(C)C)C(=O)N[C@@H](CCCCN)C(=O)NCC(=O)NCC(=O)Nc1ccc2c(C)cc(=O)oc2c1 [probe] (HELM PEPTIDE1{[ac].L.K.G.G.[Cc1cc(=O)oc2cc(N[*:1])ccc12]}$$$$V2.0)
0.1 M PLP, time point 1
  fluorescence: 64 and 61 and 69
  fluorescence normalised to probe only: 1.333 and 1.271 and 1.4375
0.1 M PLP, time point 2
  fluorescence: 71 and 69 and 77
  fluorescence normalised to probe only: 1.479 and 1.4375 and 1.604
0.1 M PLP, time point 3
  fluorescence: 78 and 86
  fluorescence normalised to probe only: 1.625 and 1.792
0.1 M PLP, time point 4
  fluorescence: 87 and 85 and 95
  fluorescence normalised to probe only: 1.8125 and 1.771 and 1.979
0.1 M PLP, time point 5
  fluorescence: 91 and 92 and 101
  fluorescence normalised to probe only: 1.896 and 1.917 and 2.104
0.1 M PLP, time point 6
  fluorescence: 95 and 97 and 105
  fluorescence normalised to probe only: 1.979 and 2.021 and 2.1875
0.1 M PLP, time point 7
  fluorescence: 100 and 105 and 111
  fluorescence normalised to probe only: 2.083 and 2.1875 and 2.3125
0.1 M PLP, time point 14
  fluorescence: 136 and 143
0.1 M PLP, time point 15
  fluorescence: 128 and 141 and 148
  fluorescence normalised to probe only: 2.667 and 2.9375 and 3.083
0.1 M PLP, time point 16
  fluorescence: 128 and 146 and 149
  fluorescence normalised to probe only: 2.667 and 3.042 and 3.104
0.1 M PLP, time point 17
  fluorescence: 133 and 150 and 155
  fluorescence normalised to probe only: 2.771 and 3.125 and 3.229
0.1 M PLP, time point 18
  fluorescence: 132 and 154 and 157
  fluorescence normalised to probe only: 2.75 and 3.208 and 3.271
0.1 M PLP, time point 19
  fluorescence: 134 and 156 and 159
  fluorescence normalised to probe only: 2.792 and 3.25 and 3.3125
0.1 M PLP, time point 20
  fluorescence: 137 and 159 and 163
  fluorescence normalised to probe only: 2.854 and 3.3125 and 3.396
0.1 M PLP, time point 21
  fluorescence: 139 and 163 and 166
  fluorescence normalised to probe only: 2.896 and 3.396 and 3.458
0.1 M PLP, time point 22
  fluorescence: 140 and 166 and 169
  fluorescence normalised to probe only: 2.917 and 3.458 and 3.521
0.1 M PLP, time point 23
  fluorescence: 142 and 172 and 171
  fluorescence normalised to probe only: 2.958 and 3.583 and 3.5625
0.1 M PLP, time point 24
  fluorescence: 143 and 173
  fluorescence normalised to probe only: 2.979 and 3.604
0.1 M PLP, time point 25
  fluorescence: 146 and 177 and 174
  fluorescence normalised to probe only: 3.042 and 3.6875 and 3.625
0.1 M PLP, time point 26
  fluorescence: 148 and 176 and 177
  fluorescence normalised to probe only: 3.083 and 3.667 and 3.6875
0.1 M PLP, time point 27
  fluorescence: 147 and 182 and 177
  fluorescence normalised to probe only: 3.0625 and 3.792 and 3.6875
0.1 M PLP, time point 28
  fluorescence: 148 and 180
  fluorescence normalised to probe only: 3.083 and 3.75
0.1 M PLP, time point 29
  fluorescence: 149 and 186 and 184
  fluorescence normalised to probe only: 3.104 and 3.875 and 3.833
0.1 M PLP, time point 30
  fluorescence: 151 and 189 and 184
  fluorescence normalised to probe only: 3.146 and 3.9375 and 3.833
0.1 M PLP, time point 31
  fluorescence: 152 and 191 and 186
  fluorescence normalised to probe only: 3.167 and 3.979 and 3.875
0.1 M PLP, time point 32
  fluorescence: 152 and 191 and 186
  fluorescence normalised to probe only: 3.167 and 3.979 and 3.875
0.1 M PLP, time point 33
  fluorescence: 154 and 196 and 188
  fluorescence normalised to probe only: 3.208 and 4.083 and 3.917
0.1 M PLP, time point 34
  fluorescence: 155 and 198 and 190
  fluorescence normalised to probe only: 3.229 and 4.125 and 3.958
0.1 M PLP, time point 35
  fluorescence: 153 and 199 and 194
  fluorescence normalised to probe only: 3.1875 and 4.146 and 4.042
0.1 M PLP, time point 36
  fluorescence: 155 and 201 and 192
  fluorescence normalised to probe only: 3.229 and 4.1875 and 4
0.1 M PLP, time point 37
  fluorescence: 156 and 203 and 193
  fluorescence normalised to probe only: 3.25 and 4.229 and 4.021
0.1 M PLP, time point 38
  fluorescence: 157 and 204 and 194
  fluorescence normalised to probe only: 3.271 and 4.25 and 4.042
0.2 M PLP, time point 1
  fluorescence: 92 and 100 and 98
  fluorescence normalised to probe only: 1.917 and 2.083 and 2.042
0.2 M PLP, time point 2
  fluorescence: 116 and 131 and 128
  fluorescence normalised to probe only: 2.417 and 2.729 and 2.667
0.2 M PLP, time point 3
  fluorescence: 140 and 158 and 154
  fluorescence normalised to probe only: 2.917 and 3.292 and 3.208
0.2 M PLP, time point 4
  fluorescence: 159 and 187 and 182
  fluorescence normalised to probe only: 3.3125 and 3.896 and 3.792
0.2 M PLP, time point 5
  fluorescence: 179 and 213 and 206
  fluorescence normalised to probe only: 3.729 and 4.4375 and 4.292
0.2 M PLP, time point 6
  fluorescence: 195 and 239 and 230
  fluorescence normalised to probe only: 4.0625 and 4.979 and 4.792
0.2 M PLP, time point 7
  fluorescence: 213 and 266 and 254
  fluorescence normalised to probe only: 4.4375 and 5.542 and 5.292
0.2 M PLP, time point 14
  fluorescence: 392 and 422 and 404
0.2 M PLP, time point 15
  fluorescence: 417 and 442 and 419
  fluorescence normalised to probe only: 8.6875 and 9.208 and 8.729
0.2 M PLP, time point 16
  fluorescence: 436 and 463 and 440
  fluorescence normalised to probe only: 9.083 and 9.646 and 9.167
0.2 M PLP, time point 17
  fluorescence: 445 and 485 and 457
  fluorescence normalised to probe only: 9.271 and 10.1042 and 9.521
0.2 M PLP, time point 18
  fluorescence: 457 and 503 and 479
  fluorescence normalised to probe only: 9.521 and 10.4792 and 9.979
0.2 M PLP, time point 19
  fluorescence: 487 and 519 and 492
  fluorescence normalised to probe only: 10.1458 and 10.8125 and 10.25
0.2 M PLP, time point 20
  fluorescence: 497 and 541 and 511
  fluorescence normalised to probe only: 10.3542 and 11.2708 and 10.6458
0.2 M PLP, time point 21
  fluorescence: 526 and 555 and 529
  fluorescence normalised to probe only: 10.9583 and 11.5625 and 11.0208
0.2 M PLP, time point 22
  fluorescence: 534 and 571 and 544
  fluorescence normalised to probe only: 11.125 and 11.8958 and 11.3333
0.2 M PLP, time point 23
  fluorescence: 563 and 594 and 560
  fluorescence normalised to probe only: 11.7292 and 12.375 and 11.6667
0.2 M PLP, time point 24
  fluorescence: 586 and 612 and 574
  fluorescence normalised to probe only: 12.2083 and 12.75 and 11.9583
0.2 M PLP, time point 25
  fluorescence: 603 and 630 and 595
  fluorescence normalised to probe only: 12.5625 and 13.125 and 12.3958
0.2 M PLP, time point 26
  fluorescence: 624 and 645 and 608
  fluorescence normalised to probe only: 13 and 13.4375 and 12.6667
0.2 M PLP, time point 27
  fluorescence: 634 and 661 and 619
  fluorescence normalised to probe only: 13.2083 and 13.7708 and 12.8958
0.2 M PLP, time point 28
  fluorescence: 640 and 674 and 633
  fluorescence normalised to probe only: 13.3333 and 14.0417 and 13.1875
0.2 M PLP, time point 29
  fluorescence: 651 and 691 and 648
  fluorescence normalised to probe only: 13.5625 and 14.3958 and 13.5
0.2 M PLP, time point 30
  fluorescence: 675 and 706 and 663
  fluorescence normalised to probe only: 14.0625 and 14.7083 and 13.8125
0.2 M PLP, time point 31
  fluorescence: 693 and 720 and 678
  fluorescence normalised to probe only: 14.4375 and 15 and 14.125
0.2 M PLP, time point 32
  fluorescence: 708 and 736 and 690
  fluorescence normalised to probe only: 14.75 and 15.3333 and 14.375
0.2 M PLP, time point 33
  fluorescence: 725 and 747 and 702
  fluorescence normalised to probe only: 15.1042 and 15.5625 and 14.625
0.2 M PLP, time point 34
  fluorescence: 743 and 758 and 715
  fluorescence normalised to probe only: 15.4792 and 15.7917 and 14.8958
0.2 M PLP, time point 35
  fluorescence: 766 and 779 and 730
  fluorescence normalised to probe only: 15.9583 and 16.2292 and 15.2083
0.2 M PLP, time point 36
  fluorescence: 780 and 793 and 741
  fluorescence normalised to probe only: 16.25 and 16.5208 and 15.4375
0.2 M PLP, time point 37
  fluorescence: 796 and 806 and 753
  fluorescence normalised to probe only: 16.5833 and 16.7917 and 15.6875
0.2 M PLP, time point 38
  fluorescence: 809 and 816 and 764
  fluorescence normalised to probe only: 16.8542 and 17 and 15.9167
0.3 M PLP, time point 1
  fluorescence: 109 and 128 and 132
  fluorescence normalised to probe only: 2.271 and 2.667 and 2.75
0.3 M PLP, time point 2
  fluorescence: 171 and 181 and 187
  fluorescence normalised to probe only: 3.5625 and 3.771 and 3.896
0.3 M PLP, time point 3
  fluorescence: 226 and 231 and 238
  fluorescence normalised to probe only: 4.708 and 4.8125 and 4.958
0.3 M PLP, time point 4
  fluorescence: 262 and 279 and 291
  fluorescence normalised to probe only: 5.458 and 5.8125 and 6.0625
0.3 M PLP, time point 5
  fluorescence: 318 and 325 and 337
  fluorescence normalised to probe only: 6.625 and 6.771 and 7.021
0.3 M PLP, time point 6
  fluorescence: 361 and 370 and 386
  fluorescence normalised to probe only: 7.521 and 7.708 and 8.042
0.3 M PLP, time point 7
  fluorescence: 407 and 413 and 428
  fluorescence normalised to probe only: 8.479 and 8.604 and 8.917
0.3 M PLP, time point 15
  fluorescence: 702 and 710 and 757
  fluorescence normalised to probe only: 14.625 and 14.7917 and 15.7708
0.3 M PLP, time point 16
  fluorescence: 734 and 747 and 791
  fluorescence normalised to probe only: 15.2917 and 15.5625 and 16.4792
0.3 M PLP, time point 17
  fluorescence: 769 and 781 and 833
  fluorescence normalised to probe only: 16.0208 and 16.2708 and 17.3542
0.3 M PLP, time point 18
  fluorescence: 802 and 813 and 860
  fluorescence normalised to probe only: 16.7083 and 16.9375 and 17.9167
0.3 M PLP, time point 19
  fluorescence: 833 and 840 and 894
  fluorescence normalised to probe only: 17.3542 and 17.5 and 18.625
0.3 M PLP, time point 20
  fluorescence: 862 and 870 and 931
  fluorescence normalised to probe only: 17.9583 and 18.125 and 19.3958
0.3 M PLP, time point 21
  fluorescence: 894 and 902 and 959
  fluorescence normalised to probe only: 18.625 and 18.7917 and 19.9792
0.3 M PLP, time point 22
  fluorescence: 917 and 925 and 996
  fluorescence normalised to probe only: 19.1042 and 19.2708 and 20.75
0.3 M PLP, time point 23
  fluorescence: 948 and 959 and 1023
